# Library compounds against nucleic acid targets

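The test is a small-molecule microarray: each compound is printed twice on a reactive slide, and binding shows as fluorescence of the labelled oligonucleotide after washing. For the PreQ1, TPP and SAM-II riboswitches the laboratory earlier reported (doi:10.1038/s41467-019-09493-3) 1 µM RNA, 2 h, and a rule that included a mean Z-score above 3 (spot signal-to-noise against the whole library), a score well above that on a control array, and duplicate spots agreeing (coefficient of variation under 100). The data file gives only the calls; its cut-offs may differ, and compounds hitting several targets are kept. These are primary screening calls, not affinities; a compound without a hit may have attached poorly or may still bind in solution.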
A compound is marked Y if it was called a hit and N if it was screened but was not.
Compounds were drawn at random from those tested, without regard to their results.
A dash means that no call is listed here.

Targets (5′ to 3′):
T1: SAM-II riboswitch RNA pseudoknot, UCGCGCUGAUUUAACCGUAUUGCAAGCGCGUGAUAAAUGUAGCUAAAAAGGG. Hit rate about 1% of about 21,000 compounds.
T2: TPP riboswitch RNA three-way junction, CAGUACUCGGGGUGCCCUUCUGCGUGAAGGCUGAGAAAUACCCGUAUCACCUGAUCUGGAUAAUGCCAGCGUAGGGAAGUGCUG. Hit rate about 0.7% of about 24,000 compounds.
T3: PreQ1 riboswitch RNA pseudoknot, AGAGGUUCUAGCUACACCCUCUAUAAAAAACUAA. From B. subtilis. Hit rate about 0.7% of about 24,000 compounds.

| # | compound | T1 | T2 | T3 |
|---|---|---|---|---|
| 1 | `COc1ccc([C@H]2CN(C(=O)C3CCN(C(=O)N(C)C)CC3)C[C@@H]2N)cc1` | N | N | N |
| 2 | `COc1ccc(CNCC(CO)C2(Cc3ccccc3)CCOC(C)(C)C2)cc1.Cl` (configuration not stated) | N | N | N |
| 3 | `C=CCn1cc(CNC(CC)c2ccnn2C)c(C)n1` (configuration not stated) | N | N | N |
| 4 | `CC1=CC(=O)NC2=CN=CNC2=N1` | N | N | N |
| 5 | `O[C@@H]1CN(Cc2ccc(-c3cc[nH]n3)s2)CC[C@H]1c1ccc(F)cc1` | N | N | N |
| 6 | `O=C1c2ccccc2C(=O)C1(Nc1ccc2c(c1)ncn2C1CCCCC1)c1ccccc1` | N | N | N |
| 7 | `Nc1nc2cccc(Cl)c2o1` | N | N | N |
| 8 | `Cc1ccc(C)c2c(O)cc(CN3C[C@H](O)[C@@H](N4CCOCC4)C3)nc12` | N | N | N |
| 9 | `Cl.O=C(O)c1ccc(NCc2nc3ccccc3[nH]2)cc1` | N | N | N |
| 10 | `Cc1noc(C)c1CN(C)Cc1cc2n(n1)CCCNC2` | N | N | N |
| 11 | `COc1ccc(CNCc2cccc(Cl)c2)cc1OC` | N | N | N |
| 12 | `CCCCNc1nc2c(c(=O)n(C)c(=O)n2C)n1Cc1ccc(F)cc1` | N | N | N |
| 13 | `OC(C#Cc1ccccc1)(c1ccccc1)c1ccccc1` | N | N | N |
| 14 | `CN(Cc1ccsc1)c1cc(N2CCOCC2)nc(N)n1` | N | N | N |
| 15 | `CCC1CN(C(=O)Cn2nc(C)cc2N)CCC(=O)N1Cc1ccccc1` (configuration not stated) | N | N | N |
| 16 | `CCOC(=O)c1coc(N2C[C@H]3C[C@H](O)[C@H](O)C[C@H]3C2)n1` | N | N | N |
| 17 | `COc1ccc(Nc2nc(-c3ccc(OC)c(OC)c3)cs2)cc1` | N | N | N |
| 18 | `Cc1ccc2nc3c(c(N)c2c1)CCN3c1ccccc1` | N | N | N |
| 19 | `COC(=O)c1cc2n(n1)CCN(c1nccc(N3CCC(O)CC3)n1)C2` | N | N | N |
| 20 | `Cc1cccc(Nc2c(-c3cccs3)nc3ncccn23)c1C` | N | N | N |
| 21 | `Nc1c(C(=O)c2ccccc2)sc2nc(-c3ccccc3)c3c(c12)CCCC3` | N | N | N |
| 22 | `Cl.O=C(O)c1ccc(CNCc2ccc(-c3ccccc3)cc2)cc1` | N | N | N |
| 23 | `OCc1ccc(CN(Cc2ccncc2)Cc2ccc(F)cc2)o1` | N | N | N |
| 24 | `Cn1ccnc1C(O)C1CCN(c2ncnc3cccc(F)c23)CC1` (configuration not stated) | N | N | N |
| 25 | `CC(C)c1nc(CN2C[C@H](C(C)C)[C@@H](N)C2)co1` | N | N | N |
| 26 | `CCc1cccc(OC2CN(C(=O)C(O)c3ccc(OC)cc3)C2)c1` (configuration not stated) | N | N | N |
| 27 | `CC1(C)O[C@@H]2C[C@H]3[C@@H]4C[C@H](F)C5=CC(=O)C=C[C@]5(C)[C@@]4(F)[C@@H](O)C[C@]3(C)[C@]2(C(=O)CO)O1` | N | N | N |
| 28 | `COc1ccc([C@H]2CN(C(=O)CCc3n[nH]c4c3CCCC4)C[C@@H]2N)cc1` | N | N | N |
| 29 | `CNCC(=O)c1ccc(O)cc1` | N | N | N |
| 30 | `Cc1ccc2c(c1)C(Cc1nc3ccccc3c(=O)n1CCCO)C(=O)N2C` (configuration not stated) | - | N | N |
| 31 | `CN(C)CCCNCc1ccc2c(c1)n(C)c(=O)n2C` | - | N | N |
| 32 | `CCCC1(CO)CCCN(CCCn2nnnc2C)C1` (configuration not stated) | N | N | N |
| 33 | `Cc1ccc2nc(C3=C(N)N(c4ccc(F)cc4)CC3=O)[nH]c2c1` | - | N | N |
| 34 | `CCN(CCCCO)C(=O)CC(=O)Nc1cccc(Cl)c1C` | N | N | N |
| 35 | `Cc1n[nH]c(C)c1C(N)C(=O)N1CC=C(c2ccc(F)cc2)CC1` (configuration not stated) | N | N | N |
| 36 | `O=C1c2ccccc2NC(c2ccc(-c3ccccc3[N+](=O)[O-])o2)N1c1ccccc1` (configuration not stated) | N | N | N |
| 37 | `COc1ccc(CNc2c(S(=O)(=O)c3ccc(C)cc3)cnc3ccccc23)cc1` | - | N | N |
| 38 | `CCCNCC(O)COc1ccccc1C(=O)CCc1ccccc1` (configuration not stated) | N | N | N |
| 39 | `CC(=O)c1ccc(OCC(O)Cn2cnc3ccccc32)cc1` (configuration not stated) | N | N | N |
| 40 | `Cc1ccc(CNc2ncccc2-c2nc(-c3ccc(C)cc3)no2)cc1` | - | N | N |
| 41 | `CC(C)Nc1nc(N2CCCC2)nc(N2CC3CC(C2)c2cccc(=O)n2C3)n1` (configuration not stated) | N | N | N |
| 42 | `Cc1[nH]c(=O)c(C#N)cc1-c1ccncc1` | N | N | N |
| 43 | `CCC(C)c1cnc(CC(C)C)c(=O)n1O` (configuration not stated) | N | N | N |
| 44 | `CCOC(=O)c1c(C)sc2c1OC(N)=C(C#N)C2c1ccc(CC)cc1` (configuration not stated) | N | N | N |
| 45 | `Cc1ccc(-c2cc(Nc3cc(C)ccc3O)nc(C)n2)cc1` | - | N | N |
| 46 | `COc1ccc(CN[C@H]2CS(=O)(=O)C[C@@H]2S(=O)(=O)c2ccc(OC)cc2)cc1` | - | N | N |
| 47 | `Nc1nonc1-c1nc2ccccc2n1CC(=O)NCc1ccc(F)cc1` | - | N | N |
| 48 | `Cc1ccc2nc(C)cc(Nc3ccc(Cl)cc3)c2c1` | N | N | N |
| 49 | `CSc1ccc(-c2nc3c[n+](CC(N)=O)ccn3c2NC2CCCC2)cc1` | N | N | N |
| 50 | `CCCNS(=O)(=O)c1ccc(NC2=NS(=O)(=O)c3ccccc32)cc1` | N | N | N |

The last 3 entries again:

| compound | T1 | T2 | T3 |
|---|---|---|---|
| `Cc1ccc2nc(C)cc(Nc3ccc(Cl)cc3)c2c1` | N | N | N |
| `CSc1ccc(-c2nc3c[n+](CC(N)=O)ccn3c2NC2CCCC2)cc1` | N | N | N |
| `CCCNS(=O)(=O)c1ccc(NC2=NS(=O)(=O)c3ccccc32)cc1` | N | N | N |

Calls as published in the ROBIN set (doi:10.1002/anie.202211358).